In article PMC6117920:
Results are given in words; binding and its absence hold for the method and conditions named. For some assays here: In cells and extracts the contact can be indirect. Some entries that bind do so weakly or less than the wild type.

Amino acid sequences for entries named in this document (tags omitted). Residues count along the entry.
UniProt P16070, residues 21-742: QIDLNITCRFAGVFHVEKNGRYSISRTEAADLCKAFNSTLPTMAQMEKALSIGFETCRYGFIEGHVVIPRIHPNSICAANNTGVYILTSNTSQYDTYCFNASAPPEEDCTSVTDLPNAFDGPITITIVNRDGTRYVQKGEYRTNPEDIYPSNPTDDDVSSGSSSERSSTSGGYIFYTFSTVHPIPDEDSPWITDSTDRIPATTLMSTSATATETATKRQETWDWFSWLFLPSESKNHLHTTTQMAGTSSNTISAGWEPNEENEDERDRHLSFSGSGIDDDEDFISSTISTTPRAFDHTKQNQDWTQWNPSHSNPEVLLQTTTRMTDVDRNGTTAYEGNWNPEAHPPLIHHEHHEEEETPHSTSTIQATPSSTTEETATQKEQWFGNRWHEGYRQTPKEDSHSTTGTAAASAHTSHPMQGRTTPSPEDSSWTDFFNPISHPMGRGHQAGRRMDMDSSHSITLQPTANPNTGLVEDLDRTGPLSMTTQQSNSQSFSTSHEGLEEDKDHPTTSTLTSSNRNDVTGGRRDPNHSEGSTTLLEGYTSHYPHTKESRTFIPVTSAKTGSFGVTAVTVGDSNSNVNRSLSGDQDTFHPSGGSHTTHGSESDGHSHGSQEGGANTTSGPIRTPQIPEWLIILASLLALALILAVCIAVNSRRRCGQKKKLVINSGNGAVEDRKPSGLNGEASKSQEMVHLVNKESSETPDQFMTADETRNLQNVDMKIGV
UniProt P36222, residues 22-383: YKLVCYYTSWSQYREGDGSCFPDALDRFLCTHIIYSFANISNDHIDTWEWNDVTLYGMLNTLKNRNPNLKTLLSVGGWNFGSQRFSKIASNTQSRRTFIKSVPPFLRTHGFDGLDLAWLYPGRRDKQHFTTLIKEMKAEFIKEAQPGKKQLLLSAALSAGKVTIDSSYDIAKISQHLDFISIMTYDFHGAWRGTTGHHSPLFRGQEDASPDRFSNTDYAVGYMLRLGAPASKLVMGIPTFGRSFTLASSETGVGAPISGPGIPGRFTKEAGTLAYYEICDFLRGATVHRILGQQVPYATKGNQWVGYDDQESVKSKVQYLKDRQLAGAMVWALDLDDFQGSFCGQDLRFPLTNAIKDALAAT

Experiments:
CD44v6 peptide (human) = target: T1, CD44v6 peptide (human); experiment: ELISA; direct ELISA; CD44v3 peptide or CD44v6 peptide coated at 4 μg/ml in PBS; various concentrations of rhCHI3L1 or rhIL-13Rα2 ECD (control BSA) added, 1 h at RT; detected with anti-CHI3L1 or anti-IL-13Rα2 antibody, absorbance at 450 nm; both purified
T1 sequence (peptide): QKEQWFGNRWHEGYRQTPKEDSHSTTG

[1] = target: CD44 (endogenous, gastric cancer cells) (human (endogenous in AGS and MGC803)) (UniProt P16070); experiment: co-IP; lysates of AGS and MGC803 cells in IP buffer (20 mM Tris pH 7.5, 150 mM NaCl, 1% TritonX-100, 1 mM EDTA); control IgG or primary antibody with GammaBind Plus Sepharose, 4°C overnight; western blot

“recombinant human CHI3L1 (from UniProt P36222 22-383)” was tested, and the binding (CD44v6 peptide (human)) was “no binding”.

In the case of “CHI3L1 (endogenous, gastric cancer cells) (from UniProt P36222 22-383)”, the binding [1] is reported as “binds”.
